Test results: US3978210A, “Antibiotic aculeacins” (Toyo Jozo Kabushiki Kaisha, priority 1974, dated 1976)
At least one read-out could not be matched to a standard name with certainty.

System: Candida albicans
Assay: Experimental chemotherapeutic effect in mice infected with Candida albicans
Type: in vivo, mouse

Which results are given for Aculeacin-A?
LD50 (infection i.p., administration i.m.): 18.0 mg/kg; LD50 (infection i.p., administration i.p.): 2.0 mg/kg; LD50 (infection i.p., administration p.o., × 2): 1460 × 2 mg./kg.; LD50 (infection i.v., administration i.m., × 2): 24.0 × 2 mg./kg.; LD50 (infection i.v., administration i.p., × 2): 16.0 × 2 mg./kg.
